Laboratory results published in US7517840B2, “Optimized perfumery for rinse-off products” (Givaudan Fragrances Corporation, priority 2005, dated 2009).

Assay: Hedonic profile (odor description) of odorants

C=CC(C)(O)CCC=C(C)CC (mixture of isomers) [ETHYL LINALOOL]
Hedonic Profile (Table 11): floral

CC(C)=CCCC(C)CCCC(C)C=O (stereo not drawn) [ADOXAL, 2,6,10-Trimethyl-9-undecenal]
Hedonic Profile (Table 13): floral

CCCCCC1CCC(=O)O1 (stereo not drawn) [ALDEHYDE C-18]
Hedonic Profile (Table 11): coconut

C=CCOC(=O)CCC1CCCCC1 [ALLYL CYCLOHEXYL PROPIONATE]
Hedonic Profile (Table 13): pineapple

C=CCOC(=O)CCCCCC [ALLYL HEPTOATE]
Hedonic Profile (Table 11): fruity banana

CC1(C)CCC[C@]2(C)[C@H]3CCO[C@]3(C)CC[C@@H]12 [AMBROXAN]
Hedonic Profile (Table 14): ambergris

CC/C(=C\CC1CC=C(C)C1(C)C)CO (stereo not drawn) [BACDANOL]
Hedonic Profile (Table 13): sandalwood

CC(=O)OCc1ccccc1 [BENZYL ACETATE]
Hedonic Profile (Table 11): jasmine gardenia

OCc1ccccc1 [BENZYL ALCOHOL]
Hedonic Profile (Table 13): floral

CCC(=O)OCc1ccccc1 [BENZYL PROPIONATE]
Hedonic Profile (Table 11): sweet fruity

Cc1ccc2c(c1)OCC(=O)CO2 [CALONE]
Hedonic Profile (Table 14): fresh marine

CC/C=C\CCOC(C)=O [CIS-3-HEXENYL ACETATE]
Hedonic Profile (Table 11): green

CC(C)=CCCC(C)CCO (stereo not drawn) [CITRONELLOL AJ, FCC, CITRONELLOL]
Hedonic Profile (Table 11): rose-like

CC=CC(=O)C1=C(C)C=CCC1(C)C [DAMASCENONE, 1-(2,6,6-Trimethylcyclohexa-1,3-dienyl)-2-buten-1-one]
Hedonic Profile (Table 14): rose

CCC(C)(O)CCC=C(C)C (stereo not drawn) [DIHYDROLINALOOL]
Hedonic Profile (Table 11): fresh floral citrus

C=CC(C)CCCC(C)(C)O (stereo not drawn) [DIHYDROMYRCENOL]
Hedonic Profile (Table 10): fresh lime, overall citrus

CC(=O)OC(C)(C)Cc1ccccc1 [DIMETHYL BENZYL CARBINYL ACETATE]
Hedonic Profile (Table 12): fresh green floral fruity

CCOC(=O)C(C)CC (stereo not drawn) [ETHYL 2-METHYLBUTYRATE, Ethyl 2-methylbutyrate]
Hedonic Profile (Table 10): green fruit apple peel

CCCC(=O)OCC [ETHYL BUTYRATE, Ethyl butyrate]
Hedonic Profile (Table 10): banana pineapple

O=C1CCCCCCCCCCCC(=O)OCCO1 [ETHYLENE BRASSYLATE]
Hedonic Profile (Table 14): Musk

O=C1CCCCCCCCCCCCCCO1 [EXALTOLIDE TOTAL]
Hedonic Profile (Table 14): Musk

CC(C)c1cccc(C(C)CC=O)c1 (stereo not drawn) [FLORHYDRAL]
Hedonic Profile (Table 13): green floral lilly of the valley

CC(C)CC1CC(C)(O)CCO1 (stereo not drawn) [FLOROL]
Hedonic Profile (Table 13): floral

CCOC(=O)CC1(C)OCCO1 [FRUCTONE]
Hedonic Profile (Table 11): green apple-

CCCCCCCC1CCC(=O)O1 (stereo not drawn) [GAMMA UNDECALACTONE]
Hedonic Profile (Table 13): peach

CCCCCCC1CCC(=O)O1 (stereo not drawn) [GAMMA-DECALACTONE, 5-Hexyldihydro-2(3H)-furanone]
Hedonic Profile (Table 13): peach

CCCCCC1C(=O)CCC1CC(=O)OC (stereo not drawn) [HEDIONE]
Hedonic Profile (Table 14): fruity jasmine

CC(C=O)Cc1ccc2c(c1)OCO2 (stereo not drawn) [HELIONAL]
Hedonic Profile (Table 13): green floral

CCCCCCC(C=O)=Cc1ccccc1 [HEXYL CINNAMIC ALDEHYDE, hexyl cinnamic aldehyde]
Hedonic Profile (Table 13): jasmine

CC(=O)C=CC1=C(C)CCCC1(C)C [IONONE BETA PURE, 4-(2,6,6-Trimethyl-1-cyclohexen-1-yl)-3-buten-2-one]
Hedonic Profile (Table 12): woody violet

CC/C=C\CCOC(=O)OC [LIFFAROME]
Hedonic Profile (Table 11): green fruity floral

C=CC(C)(O)CCC=C(C)C (stereo not drawn) [LINALOOL, linalool]
Hedonic Profile (Table 10): flowery fresh lily of the

CC1OC(C)C2Cc3ccccc3C2O1 (stereo not drawn) [MAGNOLAN/CORPS 719]
Hedonic Profile (Table 13): magnolia grapefruit

CCCC(C)C(=O)OCC (stereo not drawn) [MANZANATE, Ethyl 2-methylpentanoate]
Hedonic Profile (Table 10): fruity apple

COC(=O)c1c(C)cc(O)c(C)c1O [METHYL ATRATATE]
Hedonic Profile (Table 14): Moss

CC(C)=CC1CC(C)CCO1 (stereo not drawn) [ROSE OXIDE (HIGH CIS), Tetrahydro-4-methyl-2-(2-methylpropen-1-yl)pyran]
Hedonic Profile (Table 11): geranium and carrot leaves

CC1=CCC(CCC(C)C(C)O)C1(C)C (stereo not drawn) [SANDALORE]
Hedonic Profile (Table 14): sandalwood

CC(=O)OC(C)(C)C1CC=C(C)CC1 (stereo not drawn) [TERPINYL ACETATE]
Hedonic Profile (Table 12): bergamot lavender

CC1=CC(C)C(C=O)CC1 (stereo not drawn) [TRIPLAL]
Hedonic Profile (Table 10): green slightly

CCC=C(C)C(O)CCCCC (stereo not drawn) [UNDECAVERTOL, 4-Methyl-3-decen-5-ol]
Hedonic Profile (Table 13): green floral violet leaf like

CC(=O)OC1CCCCC1C(C)(C)C (stereo not drawn) [VERDOX]
Hedonic Profile (Table 11): fruity agrumen

CC(=O)OC1CCC(C(C)(C)C)CC1 (stereo not drawn) [VERTENEX HC]
Hedonic Profile (Table 12): woody

CC=CC(=O)C1C(C)=CCCC1(C)C (stereo not drawn) [alpha-DAMASCONE, α-1-(2,6,6-Trimethyl-2-cyclohexen-1-yl)-2-buten-1-one]
Hedonic Profile (Table 13): fruity floral

C=C(C)[C@H]1CC=C(C)CC1 [d-LIMONENE, d-1-Methyl-4-isopropenyl-1-cyclohexene]
Hedonic Profile (Table 9): lemon-like

VERTOFIX COEUR
Hedonic Profile (Table 14): woody
